Results deposited as PubChem BioAssay AID686938 (Drosophila RNAi Screening Center, 2013).

- Screen: 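Looking for CRAC channel components and the factors controlling them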 (primary screen)
- Cells: Drosophila S2R+ cells
- Reagents: long dsRNA against Drosophila genes, about 0.25 µg dsRNA per well, roughly 10,000 cells
- Timing: 5 days of knock-down before the calcium assay
- Treatment: thapsigargin (SERCA pump blocker) to empty calcium stores; entry signal taken 4 min after adding it
- Measurement: 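Per-well fluo-4 fluorescence in two replicates, unnormalised, measured in resting cells and 4 min after store depletion by the SERCA blocker thapsigargin; ratio of the two present in few wells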
- Direction: calcium entry signal: higher = stronger calcium signal after store depletion; entry to resting ratio: higher = more calcium entry relative to resting level; resting calcium signal: higher = higher resting calcium signal
- Rule for the call: 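Called when the plate z-score of the entry-to-rest ratio, mean of duplicates, falls below −3; wells with low overall dye signal (Fmax z below −2) or more than five off-targets excluded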
- Meaning of the calls: active = strongly reduced calcium entry; inactive = no strong reduction
In all, the deposit lists about 23,000 reagents; below is an unselected part of those with a known target gene and a result. In the full data, 75 (0.33%) got an active call. 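Raw plate signals without normalisation; calls rest on plate z-scores that were not deposited; ratio present for only 364 wells.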 A number with no mark means an inactive call. The numbers tell different reagents against one gene apart. A plus sign joins genes that one reagent is predicted to hit. Not given: the dose of the treatment.

| target | reagent | calcium entry signal, replicate 1 (fluorescence units) | calcium entry signal, replicate 2 (fluorescence units) | entry to resting ratio | resting calcium signal, replicate 1 (fluorescence units) | resting calcium signal, replicate 2 (fluorescence units) |
| --- | --- | --- | --- | --- | --- | --- |
| Klp31E (GeneID 34422) | 1 | 4.38e7 | – | – | 2.45e7 | – |
| CG10646 (GeneID 39426) | 1 | 4.10e7 | 2.98e7 | – | 2.11e7 | 1.60e7 |
| CG6414 (GeneID 31352) | 1 | 2.49e7 | 3.26e7 | – | 1.30e7 | 1.57e7 |
| kug (GeneID 40191) | 1 | 3.53e7 | 4.48e7 | – | 1.63e7 | 2.92e7 |
| CG17010 (GeneID 34650) | 1 | 4.68e7 | – | – | 2.29e7 | – |
| stg (GeneID 43466) | 1 | 2.59e7 | 2.08e7 | – | 1.54e7 | 1.14e7 |
| zyd (GeneID 3354992) | 1 | 4.68e7 | 4.39e7 | – | 2.31e7 | 2.05e7 |
| Es2 (GeneID 31780) | 1 | 2.64e7 | 2.75e7 | – | 1.21e7 | 1.26e7 |
| Mal-A5 (GeneID 35828) | 1 | 3.86e7 | 3.37e7 | – | 1.64e7 | 1.61e7 |
| CG18662 (GeneID 50437) | 1 | 2.55e7 | 3.31e7 | – | 1.24e7 | 1.48e7 |
| tgo (GeneID 41084) | 1 | 4.21e7 | 4.33e7 | – | 1.81e7 | 1.99e7 |
| Prosalpha4T2 (GeneID 37910) | 1 | 4.16e7 | 5.54e7 | – | 2.09e7 | 2.38e7 |
| ave (GeneID 246638) | 1 | 4.18e7 | 3.85e7 | – | 1.68e7 | 1.64e7 |
| CG14020 (GeneID 33771) | 1 | 2.18e7 | 2.46e7 | – | 1.11e7 | 1.05e7 |
| CG14647 (GeneID 40558) | 1 | 3.61e7 | 4.22e7 | – | 1.77e7 | 2.82e7 |
| CG14647 (GeneID 40558) | 2 | 4.60e7 | 4.09e7 | – | 2.84e7 | 1.91e7 |
| CG31988 (GeneID 326182) | 1 | 3.84e7 | 2.93e7 | – | 2.40e7 | 1.54e7 |
| CG4020 (GeneID 31522) | 1 | 4.08e7 | 5.09e7 | – | 1.97e7 | 2.29e7 |
| CG3942 (GeneID 41489) | 1 | 3.52e7 | 2.67e7 | – | 1.73e7 | 1.38e7 |
| CG1986 (GeneID 31925) | 1 | 2.31e7 | 3.53e7 | – | 1.35e7 | 1.98e7 |
| CG7639 (GeneID 36675) | 1 | 3.51e7 | 4.98e7 | – | 1.85e7 | 2.12e7 |
| CG17224 (GeneID 33510) | 1 | 2.05e7 | 2.18e7 | – | 1.10e7 | 1.04e7 |
| CheB74a (GeneID 3772073) | 1 | 4.33e7 | 4.93e7 | – | 1.92e7 | 2.26e7 |
| tutl (GeneID 46015) | 1 | 2.30e7 | 2.61e7 | – | 1.21e7 | 1.24e7 |
| tutl (GeneID 46015) | 2 | 2.27e7 | 2.52e7 | – | 1.08e7 | 1.19e7 |
| tutl (GeneID 46015) | 3 | 1.93e7 | 2.34e7 | – | 1.09e7 | 1.22e7 |
| CG32374 (GeneID 38848) | 1 | 3.05e7 | 4.26e7 | – | 1.45e7 | 1.68e7 |

Sorted by “calcium entry signal, replicate 2 (fluorescence units)” (ascending): 9 of the entries above.
| target | reagent | calcium entry signal, replicate 1 (fluorescence units) | calcium entry signal, replicate 2 (fluorescence units) | entry to resting ratio | resting calcium signal, replicate 1 (fluorescence units) | resting calcium signal, replicate 2 (fluorescence units) |
| --- | --- | --- | --- | --- | --- | --- |
| CG14020 (GeneID 33771) | 1 | 2.18e7 | 2.46e7 | – | 1.11e7 | 1.05e7 |
| CG31988 (GeneID 326182) | 1 | 3.84e7 | 2.93e7 | – | 2.40e7 | 1.54e7 |
| CG18662 (GeneID 50437) | 1 | 2.55e7 | 3.31e7 | – | 1.24e7 | 1.48e7 |
| Mal-A5 (GeneID 35828) | 1 | 3.86e7 | 3.37e7 | – | 1.64e7 | 1.61e7 |
| ave (GeneID 246638) | 1 | 4.18e7 | 3.85e7 | – | 1.68e7 | 1.64e7 |
| CG14647 (GeneID 40558) | 2 | 4.60e7 | 4.09e7 | – | 2.84e7 | 1.91e7 |
| CG14647 (GeneID 40558) | 1 | 3.61e7 | 4.22e7 | – | 1.77e7 | 2.82e7 |
| tgo (GeneID 41084) | 1 | 4.21e7 | 4.33e7 | – | 1.81e7 | 1.99e7 |
| Prosalpha4T2 (GeneID 37910) | 1 | 4.16e7 | 5.54e7 | – | 2.09e7 | 2.38e7 |

The list goes on.
| target | reagent | calcium entry signal, replicate 1 (fluorescence units) | calcium entry signal, replicate 2 (fluorescence units) | entry to resting ratio | resting calcium signal, replicate 1 (fluorescence units) | resting calcium signal, replicate 2 (fluorescence units) |
| --- | --- | --- | --- | --- | --- | --- |
| CG6195 (GeneID 42343) | 1 | 4.08e7 | 5.03e7 | – | 6.50e7 | 2.19e7 |
| lncRNA:roX2 (GeneID 3772415) | 1 | 3.16e7 | 4.30e7 | – | 1.63e7 | 2.24e7 |
| CG7335 (GeneID 40203) | 1 | 3.38e7 | 5.01e7 | – | 1.57e7 | 2.15e7 |
| Sps2 (GeneID 34397) | 1 | 3.82e7 | 6.54e7 | – | 1.79e7 | 2.71e7 |
| CG18675 (GeneID 50169) | 1 | 3.92e7 | 4.36e7 | – | 1.94e7 | 1.98e7 |
| CG33262 (GeneID 2768975) | 1 | 4.37e7 | 3.19e7 | – | 2.45e7 | 1.64e7 |
| CG4709 (GeneID 34324) | 1 | 5.18e7 | – | – | 2.62e7 | – |
| Dnaaf3 (GeneID 37125) | 1 | 5.79e7 | 4.74e7 | – | 2.47e7 | 2.22e7 |
| Hsp27 (GeneID 39078) | 1 | 5.03e7 | 4.00e7 | – | 3.19e7 | 1.75e7 |
| babos (GeneID 37557) | 1 | 3.36e7 | 4.46e7 | – | 1.51e7 | 1.78e7 |
| babos (GeneID 37557) | 2 | 3.66e7 | – | – | 1.85e7 | – |
| CG43254 (GeneID 12798054) | 1 | 3.46e7 | 4.56e7 | – | 1.65e7 | 2.17e7 |
| CG10588 (GeneID 40316) | 1 | 3.41e7 | 4.91e7 | – | 1.58e7 | 2.18e7 |
| Dab (GeneID 39866) | 1 | 3.74e7 | 4.14e7 | – | 1.90e7 | 1.78e7 |
| Gr22b (GeneID 117492) | 1 | 3.90e7 | 2.92e7 | – | 1.75e7 | 1.48e7 |
| Gpa2 (GeneID 5740142) | 1 | 5.19e7 | 4.77e7 | – | 2.44e7 | 1.87e7 |
| CG8141 (GeneID 41622) | 1 | 2.46e7 | 4.68e7 | – | 1.22e7 | 6.25e7 |
| ATPsynCF6 (GeneID 42759) | 1 | 4.52e7 | 4.61e7 | – | 2.36e7 | 2.17e7 |
| Cyp6d2 (GeneID 37594) | 1 | 3.32e7 | 5.26e7 | – | 1.81e7 | 2.63e7 |
| a (GeneID 43852) | 1 | 4.53e7 | 6.00e7 | – | 2.29e7 | 2.71e7 |
| a (GeneID 43852) | 2 | 4.95e7 | 5.91e7 | – | 2.14e7 | 2.34e7 |
| mus301 (GeneID 38905) | 1 | 2.92e7 | 3.27e7 | – | 1.60e7 | 1.48e7 |
| sff (GeneID 39732) | 1 | 4.03e7 | 4.82e7 | – | 1.93e7 | 3.26e7 |
| CG6574 (GeneID 41308) | 1 | 3.59e7 | 3.30e7 | – | 1.69e7 | 1.74e7 |
| Trpml + CG42638 | 1 | 5.14e7 (active) | 4.26e7 | – | 4.43e7 | 2.83e7 |
| CG9300 (GeneID 40128) | 1 | 2.24e7 | 2.09e7 | – | 1.80e7 | 1.13e7 |
| CG32202 (GeneID 326199) | 1 | 3.16e7 | 4.97e7 | – | 1.77e7 | 1.78e7 |
| List (GeneID 37157) | 1 | 5.31e7 | 4.64e7 | – | 2.32e7 | 2.31e7 |
| CG9624 (GeneID 41730) | 1 | 2.22e7 | 2.49e7 | – | 1.13e7 | 4.46e7 |
| mnd (GeneID 39625) | 1 | 4.09e7 | 4.79e7 | – | 1.95e7 | 1.88e7 |
| CG9485 (GeneID 37435) | 1 | 4.08e7 | – | – | 1.94e7 | – |
| Gbeta5 (GeneID 31744) | 1 | 3.35e7 | 3.70e7 | – | 1.49e7 | 1.56e7 |
| CG42360 (GeneID 37937) | 1 | 4.02e7 | 4.27e7 | – | 2.11e7 | 2.11e7 |
| CG13043 (GeneID 39796) | 1 | 4.56e7 | 5.84e7 | – | 2.06e7 | 2.57e7 |
| CG13667 (GeneID 38956) | 1 | 3.96e7 | 3.02e7 | – | 2.68e7 | 1.47e7 |
| wrm1 + wrm2 | 1 | 4.17e7 | 3.92e7 | – | 2.78e7 | 1.70e7 |
| Arv1 (GeneID 318031) | 1 | 3.55e7 | 3.18e7 | – | 1.81e7 | 1.62e7 |
| CG4073 (GeneID 41284) | 1 | 3.42e7 | 3.36e7 | – | 1.69e7 | 1.74e7 |
| mRpS25 (GeneID 32395) | 1 | 4.13e7 | 3.58e7 | – | 1.95e7 | 1.45e7 |
| CG11262 (GeneID 39471) | 1 | 2.67e7 | 3.57e7 | – | 1.44e7 | 1.58e7 |
| CG9044 (GeneID 33825) | 1 | 4.82e7 | – | – | 2.54e7 | – |
| CG43996 + CG43997 | 1 | 4.20e7 | 3.56e7 | – | 2.08e7 | 1.61e7 |
| CG43996 + CG43997 | 2 | 3.46e7 | 2.85e7 | – | 1.85e7 | 1.49e7 |
| CG4646 (GeneID 36459) | 1 | 2.28e7 | 3.80e7 | – | 1.23e7 | 1.57e7 |
| TAF1B (GeneID 41242) | 1 | 4.19e7 | 5.15e7 | – | 1.84e7 | 2.26e7 |
| ldbr (GeneID 38900) | 1 | 5.94e7 | 4.64e7 | – | 3.67e7 | 1.87e7 |
| east (GeneID 46006) | 1 | 3.33e7 | 6.25e7 | 1.9 | 1.77e7 | 2.52e7 |
| TwdlH (GeneID 43208) | 1 | 1.49e7 | 3.36e7 | – | 8.60e6 | 1.48e7 |
